Values of other authors as cited in US9855253B2, “Pharmaceutical composition containing FK506 derivative for treating fungal infection caused by genus Cryptococcus and genus Candida and use thereof” (INTRON BIOTECHNOLOGY CO., LTD., priority 2014, dated 2018).
At least one structure is not confirmed: it was looked up by name or label, or the drawing left a doubt.

Conditions: background statement; cited from earlier work

In the case of C=CC[C@@H]1/C=C(\C)C[C@H](C)C[C@H](OC)[C@H]2O[C@@](O)(C(=O)C(=O)N3CCCC[C@H]3C(=O)O[C@H](/C(C)=C/[C@@H]3CC[C@@H](O)[C@H](OC)C3)[C@H](C)[C@@H](O)CC1=O)[C@H](C)C[C@@H]2OC [FK506], the “efficacy relative to Cyclosporine A” value is listed as 50-100 times.
